## Results of single-concentration screens

Protein sequences, listed by entry. Tags and fused reporters are not part of them. Residues count along the entry.
UniProt Q4DA54, 1-478: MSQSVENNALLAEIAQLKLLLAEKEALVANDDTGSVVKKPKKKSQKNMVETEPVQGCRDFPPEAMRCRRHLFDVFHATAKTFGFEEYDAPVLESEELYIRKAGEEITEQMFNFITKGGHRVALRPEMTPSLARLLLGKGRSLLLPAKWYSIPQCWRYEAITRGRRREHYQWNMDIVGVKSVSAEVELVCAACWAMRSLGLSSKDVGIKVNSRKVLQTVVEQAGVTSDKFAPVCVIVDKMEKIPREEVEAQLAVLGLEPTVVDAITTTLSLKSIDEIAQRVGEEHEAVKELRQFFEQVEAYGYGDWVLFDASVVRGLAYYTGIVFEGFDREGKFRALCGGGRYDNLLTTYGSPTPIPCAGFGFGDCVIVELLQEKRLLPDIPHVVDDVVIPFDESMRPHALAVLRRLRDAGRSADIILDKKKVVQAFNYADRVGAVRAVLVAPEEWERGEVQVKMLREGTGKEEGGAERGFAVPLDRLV

From ChEMBL document CHEMBL3988442, “University of Dundee, Small-Polar-MMV Screening Library” (2021).

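Histidine-tRNA ligase, Trypanosoma cruzi CL Brener (UniProt Q4DA54). Enzyme assay of histidyl-tRNA synthetase; the read-out is not stated. Concentration: 30 µM. Direction is inferred from retests: higher values go with stronger inhibition. Of about 69,000 compounds tested this way, about 31 (0.045%) reached 50% or more in at least one test.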

Each number is a percent effect as filed.
The record does not define 0% and 100%; most values in the screen are far below 50% and negative numbers occur (in some assays of this library far below -100).
Compounds were drawn at random from those tested, without regard to their results.

{"compound": "OC[C@H]1CC[C@]2(CC1)CN(Cc1ccccn1)Cc1ccccc1O2", "Percent Effect": 2.703}
{"compound": "O=C(NCCS(=O)(=O)N1CCN(c2ncccn2)CC1)C1CC1", "Percent Effect": -3.704}
{"compound": "CN(C)CCN1CCC2(CC1)CN(Cc1cccnc1)C(=O)CO2", "Percent Effect": 7.407}
{"compound": "O=C(N[C@@H]1CCCNC1)C1(Oc2ccc(Cl)cc2)CCNCC1", "Percent Effect": 0.5525}
{"compound": "Cc1ccc(F)cc1NC(=O)CCn1cncn1", "Percent Effect": 3.093}
{"compound": "Cc1csc(CNc2cnn(C(C)C)c2)n1", "Percent Effect": 11.22}
{"compound": "CN1CCCN(C(=O)c2nc3c(n2C)CCN(c2ncccn2)C3)CC1", "Percent Effect": 2.532}
{"compound": "Cc1ccccc1C(=O)NCCC(=O)NS(=O)(=O)c1cccnc1", "Percent Effect": 8.081}
{"compound": "CCCc1noc(C(C)N2CCN(Cc3nc(C)c(C)o3)CC2)n1", "stereo": "configuration not stated", "Percent Effect": 4.118}
{"compound": "c1cnnc(N2CCCC(NCc3nc(-c4ccco4)no3)C2)c1", "stereo": "configuration not stated", "Percent Effect": 5.572}
{"compound": "Cc1ncsc1CCN(C)Cc1cc2n(n1)CCN(Cc1ccco1)C2", "Percent Effect": 8.387}
{"compound": "Cn1ccc(NC(=O)NC2CCCN(c3ccccc3Cl)C2=O)n1", "stereo": "configuration not stated", "Percent Effect": 1.149}
{"compound": "CS(=O)(=O)N1C[C@@H]2CC[C@H](C1)N(C(=O)CCn1cnc3ccccc31)C2", "Percent Effect": 2.521}
{"compound": "Cc1cccc(C(C(=O)NCCCc2nnc3ccccn23)N(C)C)c1", "stereo": "configuration not stated", "Percent Effect": -0.5128}
{"compound": "CC(C)c1noc(CCC(=O)N2CCN(C)CC2c2ccccc2)n1", "stereo": "configuration not stated", "Percent Effect": 1.807}
{"compound": "O=C(NCCc1cccs1)[C@]12COC[C@H]1CN(Cc1ccncc1)C2", "Percent Effect": 5.155}
{"compound": "NC(=O)C(NC1CCN(CC2CCCCC2)CC1)c1ccc(F)cc1", "stereo": "configuration not stated", "Percent Effect": 20.99}
{"compound": "COCCn1/c(=N/C(=O)C(C)C)sc2cc(Cl)ccc21", "Percent Effect": 1.463}
{"compound": "Cc1ncc(C)c(N2CCC(Cc3ccc(Cl)cc3)(C(=O)O)CC2)n1", "Percent Effect": 5.747}
{"compound": "CCc1cccc(C)c1NC(=O)NCCCN(CC)S(C)(=O)=O", "Percent Effect": 1.739}
{"compound": "CSC(C)(C)CNC(=O)NC1CCN(CC=C(C)C)CC1", "Percent Effect": -15}
{"compound": "COc1ccc(F)c(CN2CC(=O)N(c3ccccc3C)CC2C)c1", "stereo": "configuration not stated", "Percent Effect": 11.6}
{"compound": "CC(=O)N1CCN(Cc2ccc(C(F)(F)F)cc2F)CC(O)C1", "stereo": "configuration not stated", "Percent Effect": -9.662}
{"compound": "O=c1n(CCNCc2ccc(-c3ccccc3)cc2)nc2ccccn12", "Percent Effect": 14.14}
{"compound": "Cc1nc(C(NC(=O)CC(F)(F)F)c2ccc(Cl)cc2)no1", "stereo": "configuration not stated", "Percent Effect": 1.571}
{"compound": "Cc1ccc([C@@H]2CN(C(=O)c3csc(C)n3)C[C@H]2NC(=O)C2CC2)cc1", "Percent Effect": 0.8264}
{"compound": "Cn1ncc(N2CCC(CNC(=O)[C@@H](N)c3ccccc3)CC2)cc1=O", "Percent Effect": 3.061}
{"compound": "Cc1nsc(NC(=O)NC2(CN3CCOCC3)CCCC2)n1", "Percent Effect": 4.046}
{"compound": "Cc1nc(CN2C[C@@H]3CN(C(=O)c4cnccn4)C[C@@H]3C2)cs1", "Percent Effect": 2.479}
{"compound": "COc1cc(NCc2c(C)noc2C)c(OC)cc1Cl", "Percent Effect": 6.077}
{"compound": "COc1cccc(CSCC2=Nc3ccccc3S(=O)(=O)N2)c1", "Percent Effect": 8.333}
{"compound": "CN(C)Cc1cc(=O)n2c(n1)CN(CC1CCOCC1)CCC2", "Percent Effect": 5.747}
{"compound": "O=C(CC1CCCC1)N1CCC2(CC1)[C@H](O)C[C@@H]2O", "Percent Effect": 2.155}
{"compound": "CN(C)c1cccc(C2CCCN2c2nc3c(cnn3C)c(=O)[nH]2)c1", "stereo": "configuration not stated", "Percent Effect": 1.724}
{"compound": "Cc1ccc(CNC(=O)COc2ccc3c(c2)OCC3O)cc1", "stereo": "configuration not stated", "Percent Effect": -5.263}
{"compound": "Cc1ccc(C)c(S(=O)(=O)NC(=O)c2ccc(C)[nH]c2=O)c1", "Percent Effect": 1.17}
{"compound": "CN(C(=O)Cn1nc(-c2ccc(Br)cc2)ccc1=O)C1CCS(=O)(=O)C1", "stereo": "configuration not stated", "Percent Effect": 0.5848}
{"compound": "CNS(=O)(=O)c1ccc(CNC(=O)NCC2CCOC2)cc1", "stereo": "configuration not stated", "Percent Effect": -3.396}
{"compound": "Cc1ccc(NC2CCN(C(=O)c3ccc(Cl)cc3F)CC2)nn1", "Percent Effect": 1.69}
{"compound": "CCn1cc(CN2CCCN(C(=O)CCc3cnn(C)c3)CC2)cn1", "Percent Effect": 2.299}
{"compound": "COc1ccc2cc(NC(=O)CCNc3nc(C)cc(C)n3)cnc2c1", "Percent Effect": 2.924}
{"compound": "CC(=O)N1CC2(CCCC2)c2ccccc21", "Percent Effect": 7.182}
{"compound": "Cc1csc(CN(CC2CCCO2)C(=O)c2ccc(C)nc2C)n1", "stereo": "configuration not stated", "Percent Effect": 0}
{"compound": "Cc1cnc(N2CCOC3(CCCN(C(=O)C(C)C)C3)C2)nc1", "stereo": "configuration not stated", "Percent Effect": 1.604}
{"compound": "COc1ccc(NC(=O)Cc2c(C)nc3c(c2C)c(=O)[nH]n3C)cn1", "Percent Effect": 6.122}
{"compound": "Cc1ccc(Oc2nccnc2C2CCN(C(=O)C(C)(C)N)CC2)cc1", "Percent Effect": 12.09}
{"compound": "Cc1cc(C)n(CC(C)CNC(=O)CCc2ccco2)n1", "stereo": "configuration not stated", "Percent Effect": 2.674}
{"compound": "CC1CCCCN1CCNC(=O)c1ccn(-c2ccccc2)n1", "stereo": "configuration not stated", "Percent Effect": -1.453}
{"compound": "CN1CCN2C[C@@H](NC(=O)c3nc4ccccc4[nH]3)C[C@H]2C1", "Percent Effect": 1.622}
{"compound": "CC(C)N1CCC(c2cnc(-c3cn[nH]c3)cn2)CC1", "Percent Effect": 4.545}
{"compound": "CCNC(=O)N1CCC2(CC1)CCn1c(-c3cccc(OC)c3)cnc12", "Percent Effect": 7.362}
{"compound": "CCCC(=O)N1CCCCC1c1nccc(C)n1", "stereo": "configuration not stated", "Percent Effect": 3.745}

Repeated from the top, 7 entries:

compound,Percent Effect
OC[C@H]1CC[C@]2(CC1)CN(Cc1ccccn1)Cc1ccccc1O2,2.703%
O=C(NCCS(=O)(=O)N1CCN(c2ncccn2)CC1)C1CC1,-3.704%
CN(C)CCN1CCC2(CC1)CN(Cc1cccnc1)C(=O)CO2,7.407%
O=C(N[C@@H]1CCCNC1)C1(Oc2ccc(Cl)cc2)CCNCC1,0.5525%
Cc1ccc(F)cc1NC(=O)CCn1cncn1,3.093%
Cc1csc(CNc2cnn(C(C)C)c2)n1,11.22%
CN1CCCN(C(=O)c2nc3c(n2C)CCN(c2ncccn2)C3)CC1,2.532%